No constants are given. Whether binding was seen depends on the method and setting. Binding seen in cells or lysates may run through a third protein. Some entries that bind do so weakly or less than the wild type. One block for each binder: values may come before it.
Key:
[1] = biological target: T1, TMEM79 (mouse (Mus musculus)) (UniProt Q9D709); experiment: co-IP, immunoblot (FIG. 5C)
T1 sequence: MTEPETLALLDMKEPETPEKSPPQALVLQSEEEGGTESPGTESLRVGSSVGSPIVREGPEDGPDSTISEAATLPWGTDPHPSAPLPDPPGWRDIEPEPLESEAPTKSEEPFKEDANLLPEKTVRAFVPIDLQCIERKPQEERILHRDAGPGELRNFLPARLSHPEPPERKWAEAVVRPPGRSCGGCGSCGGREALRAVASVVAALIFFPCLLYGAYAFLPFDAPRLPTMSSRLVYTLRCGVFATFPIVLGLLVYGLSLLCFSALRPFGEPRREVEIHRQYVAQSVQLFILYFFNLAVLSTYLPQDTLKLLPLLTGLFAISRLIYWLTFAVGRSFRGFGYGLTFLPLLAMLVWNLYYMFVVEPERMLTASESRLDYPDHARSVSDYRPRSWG

[2] = biological target: T1, TMEM79 (mouse (Mus musculus)); experiment: co-IP in FZD null cells (FIG. 11F)
USP8CΔ = biological target: T2, USP8CΔ (UniProt P40818); experiment: co-IP, immunoblot (FIG. 5C)
T2 sequence (looked up): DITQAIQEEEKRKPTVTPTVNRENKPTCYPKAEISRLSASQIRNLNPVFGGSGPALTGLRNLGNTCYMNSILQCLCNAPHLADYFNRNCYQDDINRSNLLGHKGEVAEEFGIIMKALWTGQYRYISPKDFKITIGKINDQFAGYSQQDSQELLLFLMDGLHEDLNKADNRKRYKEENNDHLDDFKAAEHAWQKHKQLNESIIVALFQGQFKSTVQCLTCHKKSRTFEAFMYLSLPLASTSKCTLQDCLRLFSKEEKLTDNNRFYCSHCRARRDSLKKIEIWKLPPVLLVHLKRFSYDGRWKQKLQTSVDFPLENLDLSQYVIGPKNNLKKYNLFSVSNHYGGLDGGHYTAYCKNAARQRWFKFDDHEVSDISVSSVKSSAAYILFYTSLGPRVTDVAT

USP8C = biological target: T3, USP8C (UniProt P40818); experiment: co-IP, immunoblot (FIG. 5C and 5E)
T3 sequence (looked up): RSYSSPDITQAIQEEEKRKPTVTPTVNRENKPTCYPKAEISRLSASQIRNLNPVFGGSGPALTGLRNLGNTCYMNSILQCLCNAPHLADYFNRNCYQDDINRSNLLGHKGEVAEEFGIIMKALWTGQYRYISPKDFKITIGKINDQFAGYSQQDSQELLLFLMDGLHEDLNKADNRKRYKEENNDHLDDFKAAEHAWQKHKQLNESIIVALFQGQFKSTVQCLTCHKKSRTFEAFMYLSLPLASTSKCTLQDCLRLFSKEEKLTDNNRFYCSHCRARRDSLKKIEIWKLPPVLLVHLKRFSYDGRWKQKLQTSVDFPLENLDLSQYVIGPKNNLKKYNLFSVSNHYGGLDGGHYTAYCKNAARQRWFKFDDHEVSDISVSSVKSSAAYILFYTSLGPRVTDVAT

USP8 = biological target: T4, USP8 (UniProt P40818); experiment: co-IP in cells with all 10 FZD genes deleted (FIG. 11F)
T4 sequence (looked up): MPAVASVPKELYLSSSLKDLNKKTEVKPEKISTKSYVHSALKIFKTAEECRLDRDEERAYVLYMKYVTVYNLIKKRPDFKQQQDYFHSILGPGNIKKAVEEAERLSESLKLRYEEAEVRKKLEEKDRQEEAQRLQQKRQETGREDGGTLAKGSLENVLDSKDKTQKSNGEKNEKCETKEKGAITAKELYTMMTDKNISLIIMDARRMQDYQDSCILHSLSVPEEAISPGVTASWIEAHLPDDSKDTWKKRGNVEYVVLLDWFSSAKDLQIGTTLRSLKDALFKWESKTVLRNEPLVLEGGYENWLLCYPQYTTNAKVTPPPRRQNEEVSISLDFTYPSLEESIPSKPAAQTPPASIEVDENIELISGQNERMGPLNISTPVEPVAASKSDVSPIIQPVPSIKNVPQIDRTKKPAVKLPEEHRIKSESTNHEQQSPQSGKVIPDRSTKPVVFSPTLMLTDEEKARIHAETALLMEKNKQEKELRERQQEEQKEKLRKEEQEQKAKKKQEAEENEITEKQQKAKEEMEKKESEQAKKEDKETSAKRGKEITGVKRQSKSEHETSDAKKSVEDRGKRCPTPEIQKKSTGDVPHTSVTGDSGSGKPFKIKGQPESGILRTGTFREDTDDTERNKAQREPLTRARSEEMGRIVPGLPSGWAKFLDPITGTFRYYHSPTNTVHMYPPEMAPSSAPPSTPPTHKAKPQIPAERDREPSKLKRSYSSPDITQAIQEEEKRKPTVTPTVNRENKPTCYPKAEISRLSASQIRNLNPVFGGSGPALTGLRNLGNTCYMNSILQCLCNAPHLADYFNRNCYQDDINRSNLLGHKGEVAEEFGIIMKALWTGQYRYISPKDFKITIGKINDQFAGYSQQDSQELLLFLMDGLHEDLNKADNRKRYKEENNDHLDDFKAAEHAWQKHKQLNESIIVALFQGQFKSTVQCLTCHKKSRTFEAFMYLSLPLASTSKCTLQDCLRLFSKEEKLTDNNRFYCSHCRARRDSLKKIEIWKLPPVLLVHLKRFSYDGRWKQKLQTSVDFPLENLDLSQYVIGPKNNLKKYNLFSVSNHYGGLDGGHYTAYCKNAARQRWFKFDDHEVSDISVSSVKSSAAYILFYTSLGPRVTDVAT

- binding [1]: binds
B1: USP8C (enzyme, UniProt P40818 715-1118, looked up)
chain: RSYSSPDITQAIQEEEKRKPTVTPTVNRENKPTCYPKAEISRLSASQIRNLNPVFGGSGPALTGLRNLGNTCYMNSILQCLCNAPHLADYFNRNCYQDDINRSNLLGHKGEVAEEFGIIMKALWTGQYRYISPKDFKITIGKINDQFAGYSQQDSQELLLFLMDGLHEDLNKADNRKRYKEENNDHLDDFKAAEHAWQKHKQLNESIIVALFQGQFKSTVQCLTCHKKSRTFEAFMYLSLPLASTSKCTLQDCLRLFSKEEKLTDNNRFYCSHCRARRDSLKKIEIWKLPPVLLVHLKRFSYDGRWKQKLQTSVDFPLENLDLSQYVIGPKNNLKKYNLFSVSNHYGGLDGGHYTAYCKNAARQRWFKFDDHEVSDISVSSVKSSAAYILFYTSLGPRVTDVAT

- binding [2]: binds
B2: USP8 (enzyme, UniProt P40818 1-1118, looked up, not shown: small tags and cut ends)
chain: MPAVASVPKELYLSSSLKDLNKKTEVKPEKISTKSYVHSALKIFKTAEECRLDRDEERAYVLYMKYVTVYNLIKKRPDFKQQQDYFHSILGPGNIKKAVEEAERLSESLKLRYEEAEVRKKLEEKDRQEEAQRLQQKRQETGREDGGTLAKGSLENVLDSKDKTQKSNGEKNEKCETKEKGAITAKELYTMMTDKNISLIIMDARRMQDYQDSCILHSLSVPEEAISPGVTASWIEAHLPDDSKDTWKKRGNVEYVVLLDWFSSAKDLQIGTTLRSLKDALFKWESKTVLRNEPLVLEGGYENWLLCYPQYTTNAKVTPPPRRQNEEVSISLDFTYPSLEESIPSKPAAQTPPASIEVDENIELISGQNERMGPLNISTPVEPVAASKSDVSPIIQPVPSIKNVPQIDRTKKPAVKLPEEHRIKSESTNHEQQSPQSGKVIPDRSTKPVVFSPTLMLTDEEKARIHAETALLMEKNKQEKELRERQQEEQKEKLRKEEQEQKAKKKQEAEENEITEKQQKAKEEMEKKESEQAKKEDKETSAKRGKEITGVKRQSKSEHETSDAKKSVEDRGKRCPTPEIQKKSTGDVPHTSVTGDSGSGKPFKIKGQPESGILRTGTFREDTDDTERNKAQREPLTRARSEEMGRIVPGLPSGWAKFLDPITGTFRYYHSPTNTVHMYPPEMAPSSAPPSTPPTHKAKPQIPAERDREPSKLKRSYSSPDITQAIQEEEKRKPTVTPTVNRENKPTCYPKAEISRLSASQIRNLNPVFGGSGPALTGLRNLGNTCYMNSILQCLCNAPHLADYFNRNCYQDDINRSNLLGHKGEVAEEFGIIMKALWTGQYRYISPKDFKITIGKINDQFAGYSQQDSQELLLFLMDGLHEDLNKADNRKRYKEENNDHLDDFKAAEHAWQKHKQLNESIIVALFQGQFKSTVQCLTCHKKSRTFEAFMYLSLPLASTSKCTLQDCLRLFSKEEKLTDNNRFYCSHCRARRDSLKKIEIWKLPPVLLVHLKRFSYDGRWKQKLQTSVDFPLENLDLSQYVIGPKNNLKKYNLFSVSNHYGGLDGGHYTAYCKNAARQRWFKFDDHEVSDISVSSVKSSAAYILFYTSLGPRVTDVAT

- binding (USP8CΔ): binds
- binding (USP8C): binds
- binding (USP8): binds
B3: TMEM79 (protein, not shown: small tags and cut ends)
chain: MTEPETLALLDMKEPETPEKSPPQALVLQSEEEGGTESPGTESLRVGSSVGSPIVREGPEDGPDSTISEAATLPWGTDPHPSAPLPDPPGWRDIEPEPLESEAPTKSEEPFKEDANLLPEKTVRAFVPIDLQCIERKPQEERILHRDAGPGELRNFLPARLSHPEPPERKWAEAVVRPPGRSCGGCGSCGGREALRAVASVVAALIFFPCLLYGAYAFLPFDAPRLPTMSSRLVYTLRCGVFATFPIVLGLLVYGLSLLCFSALRPFGEPRREVEIHRQYVAQSVQLFILYFFNLAVLSTYLPQDTLKLLPLLTGLFAISRLIYWLTFAVGRSFRGFGYGLTFLPLLAMLVWNLYYMFVVEPERMLTASESRLDYPDHARSVSDYRPRSWG
